# PubChem BioAssay AID2685 (National Center for Advancing Translational Sciences (NCATS), 2010)
# The list shows a part of the results. The main result of the screen is listed elsewhere. These columns were measured beside it and carry no call. The list favours compounds with an active or inconclusive main result. Potencies come from curve fits of mixed quality, noted in brackets.
# Test: qHTS Assay for Lipid Storage Modulators in Drosophila S3 Cells;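 for cell number change: cells counted by Cell Tracker Red CMTPX staining in the red channel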
# Details: BODIPY lipid droplet fluorescence, 18-24 h; for cell number change: measured here: cell count max response, cells fed with added oleic acid
# Procedure, shortened: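 Laser-scanning cytometry quantifies lipid droplet accumulation (500–530 nm total intensity; droplet/cell object ratio) in oleic acid-fed (400 uM added) Drosophila S3 cells treated with a concentration series. 20 uM Triacsin C defined 100% inhibition.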
# [1] = measured here: lipid fluorescence (Fed channel) AC50, cells fed with added oleic acid
# [2] = measured here: cell number channel AC50, cells fed with added oleic acid
SMILES,cell number change [%],AC50 [1],AC50 [2]
CCc1nnc(NC(=O)c2ccc3ccccc3n2)s1,3.09,"3.66 µM [falling, single point]",
CCOc1cccc(C(=O)N(Cc2cccc(F)c2)C2CCS(=O)(=O)C2)c1 (stereo unspecified),-5.07,"18.4 µM [falling, partial curve, poor fit]",
COCCN(C(=O)COC(=O)c1cc2c(s1)CCCC2)c1c(N)n(Cc2ccccc2)c(=O)[nH]c1=O,-9.58,"0.82 µM [falling, full curve, poor fit]","0.731 µM [falling, full curve, poor fit]"
COc1cccc(C2C(C(=O)/C=C/c3ccco3)=C(O)C(=O)N2CCN2CCOCC2)c1 (stereo unspecified),8.94,"6.51 µM [falling, single point]",
CN(C)C(CNC(=O)c1ccc(S(=O)(=O)Nc2ccccc2F)cc1)c1ccco1 (stereo unspecified),1.65,"4.61 µM [falling, single point]",
CCOC(=O)CC(=O)CSc1nc(N)c(C#N)c(-c2ccc(Cl)cc2)c1C#N,2.44,"5.8 µM [rising, single point]",
Cc1onc(-c2ccccc2Cl)c1C(=O)N(Cc1ccccc1)C(C)C,19.8,"29.1 µM [falling, single point]",
O=C(Oc1ccccc1C(=S)N1CCOCC1)c1ccc([N+](=O)[O-])cc1[N+](=O)[O-],-23.8,"1.3 µM [falling, full curve]","0.231 µM [falling, full curve, poor fit]"
O=C(OCc1c(-c2ccccc2)ncc2ccccc12)c1ccc(Cl)cc1Cl,11.5,"16.4 µM [rising, partial curve, poor fit]",
COc1ccc(OC)c(NC(=O)C2CCN(S(=O)(=O)c3c(C)noc3C)CC2)c1,-88.4,"5.17 µM [falling, full curve]","0.366 µM [falling, full curve]"
CN(C)c1ccccc1C(=O)N1CCC(n2nccc2NC(=O)C2CC2)CC1,,"0.58 µM [rising, single point]",
CC(C)CN(C(=O)CN1CCN(c2ccccc2F)CC1)c1c(N)n(CC(C)C)c(=O)[nH]c1=O,-14,"0.13 µM [falling, full curve]",
Clc1ccc(CSc2nnc(CN3CCOCC3)n2-c2ccccc2)cc1Cl,,"29.1 µM [rising, single point]",
Cc1ccc(S(=O)(=O)NNC(=O)c2sc3nc(C)cc(C)c3c2-n2cccc2)cc1,34,,"0.82 µM [rising, full curve, poor fit]"
CCn1cc(/C=C(\NC(=O)c2ccccc2Cl)C(=O)N2CCOCC2)c2ccccc21,-17.5,"23.1 µM [falling, single point]",
COC(=O)CN(c1nc(C)c(Br)c(OC)n1)S(=O)(=O)c1ccc(C)cc1,-28.2,,
C=CCn1c(=O)c2c(C)c(C)sc2n2c(Nc3ccc(OC)cc3)nnc12,8.05,"0.00461 µM [rising, full curve, poor fit]","0.00461 µM [rising, full curve, poor fit]"
COc1ccc(C(c2nnnn2C(C)C)N2CCN(C(=O)c3ccco3)CC2)cc1 (stereo unspecified),,"0.0517 µM [falling, full curve]",
Cc1nn(C)c(N)c1[N+](=O)[O-],11.2,"0.517 µM [falling, full curve]","0.461 µM [falling, full curve]"
COC(=O)c1ccc(Sc2ccc(Cl)cc2)c(N)c1,-20,,
CCn1c(=O)c(C(=O)NNC(=O)c2cccc(Cl)c2)c(O)c2ccccc21,3.17,,"0.13 µM [falling, full curve, poor fit]"
Cc1nc(NCCc2ccc(S(N)(=O)=O)cc2)c2c3c(sc2n1)CCC3,52.2,"1.3 µM [rising, partial curve]","4.61 µM [rising, partial curve]"
Cc1c(OCC(=O)NCc2ccccn2)ccc2c3c(c(=O)oc12)CCCC3,-6.13,"6.51 µM [falling, single point]",
Cc1ccc2c(C)c(C(=O)NCCN3CCCC(O)C3)oc2c1C (stereo unspecified),13.7,"3.66 µM [rising, single point]",
CCCc1nc2ccc(NC(C)=O)cc2c(=O)n1Cc1ccccc1Cl,-47.2,,"29.1 µM [falling, single point]"
O=C(NC1CCCC1)c1ccc(Br)c(S(=O)(=O)N2CCCCC2)c1,-21.8,"29.1 µM [rising, single point]",
COc1ccc(S(=O)(=O)N2CCN(C(=O)CNC(=O)c3ccc4c(c3)OCO4)CC2)cc1,23,,
CC(O)Cc1cn(CC(=O)N2CCNCC2)nn1 (stereo unspecified),5.52,"0.0731 µM [falling, single point]",

# Copied from the list:
# In AC50 [1], `CN(C)C(CNC(=O)c1ccc(S(=O)(=O)Nc2ccccc2F)cc1)c1ccco1` (stereo unspecified) reads 4.61 µM [falling, single point]
# In cell number change [%], `CC(O)Cc1cn(CC(=O)N2CCNCC2)nn1` (stereo unspecified) reads 5.52
